Test results taken from the supplement of paper PMC10849652.
This is one part of the list.

Protein sequences, listed by entry. Tags and fused reporters are not part of them. Lines headed by an entry give the natural chain unless they say otherwise; changes in a name come on top.
UniProt Q14161: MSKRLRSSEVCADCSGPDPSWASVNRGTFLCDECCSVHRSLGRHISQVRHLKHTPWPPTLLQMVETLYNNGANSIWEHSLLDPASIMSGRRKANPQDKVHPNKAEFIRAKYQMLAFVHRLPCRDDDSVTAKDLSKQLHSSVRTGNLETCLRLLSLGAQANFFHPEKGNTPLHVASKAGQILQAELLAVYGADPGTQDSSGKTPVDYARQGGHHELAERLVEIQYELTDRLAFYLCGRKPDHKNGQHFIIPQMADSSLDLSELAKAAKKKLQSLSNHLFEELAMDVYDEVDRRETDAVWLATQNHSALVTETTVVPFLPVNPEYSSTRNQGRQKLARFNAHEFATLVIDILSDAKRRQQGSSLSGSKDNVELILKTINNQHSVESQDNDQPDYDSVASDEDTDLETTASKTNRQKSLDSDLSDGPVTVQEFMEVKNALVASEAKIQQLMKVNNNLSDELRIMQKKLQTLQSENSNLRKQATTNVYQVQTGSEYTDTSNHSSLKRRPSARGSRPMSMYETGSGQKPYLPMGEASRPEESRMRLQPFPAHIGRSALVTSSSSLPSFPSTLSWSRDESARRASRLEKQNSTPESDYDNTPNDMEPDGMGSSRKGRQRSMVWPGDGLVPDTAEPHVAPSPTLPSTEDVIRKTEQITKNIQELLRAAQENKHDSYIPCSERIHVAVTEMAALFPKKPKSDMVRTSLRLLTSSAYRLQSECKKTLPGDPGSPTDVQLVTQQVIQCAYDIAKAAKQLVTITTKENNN
UniProt Q9H4A5: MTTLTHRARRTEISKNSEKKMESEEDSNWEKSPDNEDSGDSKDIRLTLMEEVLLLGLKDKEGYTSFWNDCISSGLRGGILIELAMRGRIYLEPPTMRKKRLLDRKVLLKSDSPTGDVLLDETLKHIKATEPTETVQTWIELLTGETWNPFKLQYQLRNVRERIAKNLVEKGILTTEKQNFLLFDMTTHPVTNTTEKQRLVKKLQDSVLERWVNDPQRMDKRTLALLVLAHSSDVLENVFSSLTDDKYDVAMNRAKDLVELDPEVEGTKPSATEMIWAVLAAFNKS
UniProt Q9Y4H4: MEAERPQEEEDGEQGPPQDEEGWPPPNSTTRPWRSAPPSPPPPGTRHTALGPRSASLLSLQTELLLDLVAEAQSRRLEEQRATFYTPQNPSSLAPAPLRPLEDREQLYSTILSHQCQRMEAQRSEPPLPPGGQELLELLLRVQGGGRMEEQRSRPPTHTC
UniProt Q15743: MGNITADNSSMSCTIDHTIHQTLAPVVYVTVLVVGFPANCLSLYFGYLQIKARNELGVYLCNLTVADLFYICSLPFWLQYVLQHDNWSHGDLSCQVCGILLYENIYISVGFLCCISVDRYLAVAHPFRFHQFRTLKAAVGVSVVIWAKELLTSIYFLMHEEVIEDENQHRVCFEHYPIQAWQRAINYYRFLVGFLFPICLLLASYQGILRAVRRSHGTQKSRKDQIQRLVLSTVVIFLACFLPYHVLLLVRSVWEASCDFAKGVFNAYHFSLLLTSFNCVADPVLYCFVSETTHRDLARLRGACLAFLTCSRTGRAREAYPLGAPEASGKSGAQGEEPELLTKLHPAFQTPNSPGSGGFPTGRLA
UniProt A6NDN3: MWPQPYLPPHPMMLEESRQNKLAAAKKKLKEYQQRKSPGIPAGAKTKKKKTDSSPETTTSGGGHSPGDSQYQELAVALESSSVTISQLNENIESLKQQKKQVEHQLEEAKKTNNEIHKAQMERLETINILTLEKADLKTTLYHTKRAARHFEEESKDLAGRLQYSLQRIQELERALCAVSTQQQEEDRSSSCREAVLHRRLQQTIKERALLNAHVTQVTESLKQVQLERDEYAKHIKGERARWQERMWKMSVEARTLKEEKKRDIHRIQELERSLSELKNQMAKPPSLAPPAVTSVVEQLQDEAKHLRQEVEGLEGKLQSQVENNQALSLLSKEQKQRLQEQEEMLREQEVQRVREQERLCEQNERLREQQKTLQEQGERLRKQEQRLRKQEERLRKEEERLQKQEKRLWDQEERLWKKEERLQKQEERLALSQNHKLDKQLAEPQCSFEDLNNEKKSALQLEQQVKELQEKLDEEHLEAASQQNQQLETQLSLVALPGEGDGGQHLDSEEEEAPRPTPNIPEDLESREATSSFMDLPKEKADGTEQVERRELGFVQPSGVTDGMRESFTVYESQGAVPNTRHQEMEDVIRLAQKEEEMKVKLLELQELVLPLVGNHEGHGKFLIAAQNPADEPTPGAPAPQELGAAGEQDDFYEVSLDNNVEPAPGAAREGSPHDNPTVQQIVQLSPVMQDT
UniProt P43250, whole entry, looked up: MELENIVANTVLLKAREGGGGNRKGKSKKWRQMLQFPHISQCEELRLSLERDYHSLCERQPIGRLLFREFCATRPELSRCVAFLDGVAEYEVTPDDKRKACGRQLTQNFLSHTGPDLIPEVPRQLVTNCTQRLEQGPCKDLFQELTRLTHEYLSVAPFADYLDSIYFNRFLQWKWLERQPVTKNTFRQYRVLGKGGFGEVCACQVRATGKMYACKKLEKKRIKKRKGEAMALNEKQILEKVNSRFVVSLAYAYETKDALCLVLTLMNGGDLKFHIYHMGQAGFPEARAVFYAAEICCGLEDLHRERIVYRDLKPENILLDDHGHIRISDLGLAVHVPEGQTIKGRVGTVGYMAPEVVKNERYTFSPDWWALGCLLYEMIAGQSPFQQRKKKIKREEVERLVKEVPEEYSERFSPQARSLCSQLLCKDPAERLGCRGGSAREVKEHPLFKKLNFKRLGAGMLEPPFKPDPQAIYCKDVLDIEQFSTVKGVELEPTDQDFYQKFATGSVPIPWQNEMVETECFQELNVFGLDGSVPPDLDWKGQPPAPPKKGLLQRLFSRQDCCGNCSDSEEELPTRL
UniProt Q9NVN8: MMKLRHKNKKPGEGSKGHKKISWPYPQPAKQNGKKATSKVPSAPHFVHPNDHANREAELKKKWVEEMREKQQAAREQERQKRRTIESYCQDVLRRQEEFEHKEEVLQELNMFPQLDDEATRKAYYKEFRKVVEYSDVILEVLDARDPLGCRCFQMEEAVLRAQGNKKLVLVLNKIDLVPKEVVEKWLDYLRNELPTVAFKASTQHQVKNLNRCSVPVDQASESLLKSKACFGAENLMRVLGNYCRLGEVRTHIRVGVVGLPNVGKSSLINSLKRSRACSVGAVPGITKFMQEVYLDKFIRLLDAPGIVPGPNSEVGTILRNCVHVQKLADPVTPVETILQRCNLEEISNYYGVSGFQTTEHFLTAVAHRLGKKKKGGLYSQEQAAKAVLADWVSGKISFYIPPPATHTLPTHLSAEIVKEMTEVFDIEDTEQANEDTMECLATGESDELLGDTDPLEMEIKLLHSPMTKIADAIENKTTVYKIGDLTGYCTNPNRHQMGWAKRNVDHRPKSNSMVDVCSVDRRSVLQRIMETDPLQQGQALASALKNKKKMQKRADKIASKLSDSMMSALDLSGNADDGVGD
UniProt O60443: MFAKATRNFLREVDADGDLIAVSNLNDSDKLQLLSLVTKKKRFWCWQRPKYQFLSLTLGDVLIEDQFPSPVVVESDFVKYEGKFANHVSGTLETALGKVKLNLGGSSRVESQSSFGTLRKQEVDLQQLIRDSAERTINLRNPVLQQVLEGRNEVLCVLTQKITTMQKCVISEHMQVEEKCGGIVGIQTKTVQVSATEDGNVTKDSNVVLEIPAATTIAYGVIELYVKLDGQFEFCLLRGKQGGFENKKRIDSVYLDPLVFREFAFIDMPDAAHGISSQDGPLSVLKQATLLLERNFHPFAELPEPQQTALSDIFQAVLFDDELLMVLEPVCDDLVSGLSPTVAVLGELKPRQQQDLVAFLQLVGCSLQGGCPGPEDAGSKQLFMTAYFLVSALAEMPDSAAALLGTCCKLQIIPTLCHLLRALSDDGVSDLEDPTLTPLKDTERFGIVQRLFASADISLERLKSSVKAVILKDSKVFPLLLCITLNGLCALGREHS
UniProt Q68CQ7: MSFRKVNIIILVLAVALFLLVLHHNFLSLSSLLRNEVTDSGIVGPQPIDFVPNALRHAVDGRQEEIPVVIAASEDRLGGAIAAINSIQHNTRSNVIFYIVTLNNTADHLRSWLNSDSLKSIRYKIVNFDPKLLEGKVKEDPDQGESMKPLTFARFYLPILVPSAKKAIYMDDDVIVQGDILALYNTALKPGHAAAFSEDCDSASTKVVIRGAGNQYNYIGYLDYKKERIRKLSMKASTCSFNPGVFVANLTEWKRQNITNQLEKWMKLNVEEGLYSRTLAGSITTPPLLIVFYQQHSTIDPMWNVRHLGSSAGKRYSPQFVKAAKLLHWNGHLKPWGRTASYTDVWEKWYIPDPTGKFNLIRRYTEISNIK
UniProt P17302, whole entry, looked up: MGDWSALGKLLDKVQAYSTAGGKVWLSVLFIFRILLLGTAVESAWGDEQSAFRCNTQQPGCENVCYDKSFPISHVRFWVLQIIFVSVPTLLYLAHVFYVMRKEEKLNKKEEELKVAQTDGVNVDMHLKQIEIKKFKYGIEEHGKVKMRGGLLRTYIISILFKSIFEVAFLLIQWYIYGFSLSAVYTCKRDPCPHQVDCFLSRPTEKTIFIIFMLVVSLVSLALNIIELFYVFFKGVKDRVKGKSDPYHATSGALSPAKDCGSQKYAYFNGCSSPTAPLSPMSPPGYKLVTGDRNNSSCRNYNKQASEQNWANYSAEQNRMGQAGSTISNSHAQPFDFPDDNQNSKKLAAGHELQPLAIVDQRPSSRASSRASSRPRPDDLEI
UniProt Q9BRR8: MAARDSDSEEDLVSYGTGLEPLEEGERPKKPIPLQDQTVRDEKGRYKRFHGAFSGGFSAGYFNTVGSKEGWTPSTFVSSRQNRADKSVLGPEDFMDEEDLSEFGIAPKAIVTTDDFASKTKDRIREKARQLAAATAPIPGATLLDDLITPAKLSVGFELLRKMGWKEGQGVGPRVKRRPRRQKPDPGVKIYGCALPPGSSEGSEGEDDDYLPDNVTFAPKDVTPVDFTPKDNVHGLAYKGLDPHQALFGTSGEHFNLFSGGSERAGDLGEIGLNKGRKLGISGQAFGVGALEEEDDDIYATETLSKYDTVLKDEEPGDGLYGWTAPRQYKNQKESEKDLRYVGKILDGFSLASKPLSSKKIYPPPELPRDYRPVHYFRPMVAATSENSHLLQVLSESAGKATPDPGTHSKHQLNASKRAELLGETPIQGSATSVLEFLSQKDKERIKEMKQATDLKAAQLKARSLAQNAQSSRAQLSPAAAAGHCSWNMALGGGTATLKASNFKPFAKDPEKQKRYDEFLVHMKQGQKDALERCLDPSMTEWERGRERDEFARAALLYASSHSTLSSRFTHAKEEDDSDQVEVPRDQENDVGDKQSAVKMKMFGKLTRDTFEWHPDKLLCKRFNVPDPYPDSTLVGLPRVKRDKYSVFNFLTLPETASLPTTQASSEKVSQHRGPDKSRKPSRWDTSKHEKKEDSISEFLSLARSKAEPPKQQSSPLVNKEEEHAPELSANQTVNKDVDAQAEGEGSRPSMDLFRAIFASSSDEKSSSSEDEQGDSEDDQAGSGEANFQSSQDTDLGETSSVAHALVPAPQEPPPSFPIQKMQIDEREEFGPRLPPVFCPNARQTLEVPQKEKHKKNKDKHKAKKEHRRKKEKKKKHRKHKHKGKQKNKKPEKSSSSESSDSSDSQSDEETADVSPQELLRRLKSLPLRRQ
UniProt Q6ZS86: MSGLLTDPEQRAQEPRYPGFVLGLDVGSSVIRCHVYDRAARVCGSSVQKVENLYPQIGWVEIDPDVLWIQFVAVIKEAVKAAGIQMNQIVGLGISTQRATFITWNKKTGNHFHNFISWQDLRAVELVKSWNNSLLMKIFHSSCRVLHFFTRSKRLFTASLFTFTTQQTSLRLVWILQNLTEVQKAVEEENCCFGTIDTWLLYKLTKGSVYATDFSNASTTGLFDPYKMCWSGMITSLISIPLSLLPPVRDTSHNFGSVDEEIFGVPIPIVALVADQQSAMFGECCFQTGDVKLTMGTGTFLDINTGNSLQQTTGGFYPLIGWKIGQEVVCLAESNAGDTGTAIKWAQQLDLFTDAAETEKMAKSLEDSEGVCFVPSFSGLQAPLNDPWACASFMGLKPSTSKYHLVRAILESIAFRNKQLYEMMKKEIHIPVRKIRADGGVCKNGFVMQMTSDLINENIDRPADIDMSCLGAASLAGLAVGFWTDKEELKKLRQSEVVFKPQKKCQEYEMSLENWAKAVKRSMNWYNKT
UniProt Q9BQQ3: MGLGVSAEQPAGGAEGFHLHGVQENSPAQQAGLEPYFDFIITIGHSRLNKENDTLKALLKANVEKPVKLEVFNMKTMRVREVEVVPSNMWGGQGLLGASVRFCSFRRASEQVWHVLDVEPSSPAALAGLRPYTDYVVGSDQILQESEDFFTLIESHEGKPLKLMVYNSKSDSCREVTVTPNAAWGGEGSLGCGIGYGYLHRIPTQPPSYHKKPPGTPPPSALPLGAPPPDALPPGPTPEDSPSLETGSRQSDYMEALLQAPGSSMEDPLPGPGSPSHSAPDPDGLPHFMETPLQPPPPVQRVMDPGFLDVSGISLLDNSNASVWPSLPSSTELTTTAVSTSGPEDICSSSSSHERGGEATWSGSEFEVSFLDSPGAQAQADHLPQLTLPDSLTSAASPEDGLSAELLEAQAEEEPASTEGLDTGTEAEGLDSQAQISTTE

What was measured:
Assay in all cases: log2 fold change, soluble protein after heating vs DMSO (PISA); higher = thermal stabilisation; K562 cells, 10 uM, 30 min; active = over 0.2 and 3.5 SD of the protein, either way, in both replicates (recomputed)
[1] = compound: CC1=CC=C(C=C1)SC2=C3C=C(SC3=CN=C2)C(=O)N
In short: (§1)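 Thermal stability values are relative to control samples and come from duplicates. They are expressed as log2 fold changes. For measurement, K562 cells (2×10^6 cells/mL) received 10 μM compound for 30 min, and aliquots were heated for 3 min over 48°C-58°C, pooled, and extracted at 4°C in PBS with 0.5% NP-40. Soluble protein, the supernatant after 21,000xg for 90 min, was quantified by TMTpro 16plex LC-MS/MS with equalised channel sums.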

[2] = compound: CC1=NC(=CC=C1)C2=C(N=C(N2)C(C)(C)C)C3=CC4=NC=CN=C4C=C3
In short: as §1

Nexturastat A = compound: CCCCN(Cc1ccc(C(=O)NO)cc1)C(=O)Nc1ccccc1 [Nexturastat A]
In short: as §1

[3] = compound: CCCS(=O)(=O)Nc1ccc(F)c(C(=O)c2c[nH]c3ncc(Cl)cc23)c1F
In short: as §1

[4] = compound: CCCc1cc(C)[nH]c(=O)c1CNC(=O)c1cc(-c2ccnc(N3CCN(C)CC3)c2)cc2c1cnn2C(C)C
In short: as §1

givinostat = compound: CCN(CC)Cc1ccc2cc(COC(=O)Nc3ccc(C(=O)NO)cc3)ccc2c1 [givinostat]
In short: as §1

barasertib = compound: CCN(CCCOc1ccc2c(Nc3cc(CC(=O)Nc4cccc(F)c4)[nH]n3)ncnc2c1)CCOP(=O)(O)O [barasertib]
In short: as §1

volasertib = compound: CC[C@@H]1C(=O)N(C)c2cnc(Nc3ccc(C(=O)N[C@H]4CC[C@H](N5CCN(CC6CC6)CC5)CC4)cc3OC)nc2N1C(C)C [volasertib]
In short: as §1

[5] = compound: CC[C@H](C)N1C=C(C2=C(C=C(C=C21)C3=CN=C(C=C3)N4CCNCC4)C(=O)NCC5=C(C=C(NC5=O)C)C)C
In short: as §1

epoxomicin = compound: CC[C@H](C)[C@@H](C(=O)N[C@@H]([C@@H](C)O)C(=O)N[C@@H](CC(C)C)C(=O)[C@]1(CO1)C)NC(=O)[C@H]([C@@H](C)CC)N(C)C(=O)C [epoxomicin]
In short: as §1

[6] = compound: CCn1c(C(=O)N(C2CC2)C2CC2)cc2c3c(ncn3C)c(Nc3cc(C)n(C)n3)nc21
In short: as §1

rosiglitazone = compound: CN(CCOC1=CC=C(C=C1)C[C@H]2C(=O)NC(=O)S2)C3=CC=CC=N3 (racemic) [rosiglitazone]
In short: as §1

[7] = compound: CN1C2=C(C3=C1C(=O)N(N=C3)CC4=CC(=CC=C4)N)SC(=C2)S(=O)C
In short: as §1

[8] = compound: CC1=C(C=C(C=C1)NC(=O)C2=CC(=CC=C2)C(C)(C)C#N)NC3=CC4=C(C=C3)N=CN(C4=O)C
In short: as §1

vemurafenib = compound: CCCS(=O)(=O)Nc1ccc(F)c(C(=O)c2c[nH]c3ncc(-c4ccc(Cl)cc4)cc23)c1F [vemurafenib]
In short: as §1

[9] = compound: CCn1cc(-c2ccnc3[nH]c(-c4cccc(CN(C)C)c4)cc23)c(-c2ccc(NC(=O)N(C)C)cc2)n1
In short: as §1

[10] = compound: CN(C)CC(=O)Nc1ccc2[nH]c(=O)c3ccccc3c2c1
In short: as §1

[11] = compound: CN1CCC(CNc2ccc3ncc(-c4cccc(OC(F)(F)F)c4)n3n2)CC1
In short: as §1

[12] = compound: CC1=C(C=C(C=C1)NC(=O)C2=CC(=CC=C2)N(C)C)NC(=O)C3=CC=C(C=C3)O
In short: as §1

[13] = compound: CC[C@@H]1C(=O)N(C)c2cnc(Nc3ccc(C(=O)NC4CCN(C)CC4)cc3OC)nc2N1C1CCCC1
In short: as §1

Measured: log2 fold change

GIT2 (UniProt Q14161)
inactive: [1] -0.085 | [2] 0.104 | Nexturastat A 0.143 | [3] 0.223 | [4] -0.144 | givinostat 0.265 | barasertib -0.122 | volasertib -0.525 | [5] -0.346 | epoxomicin -0.241 | [6] -0.146 | rosiglitazone 0.192 | [7] -0.101

GOLPH3L (UniProt Q9H4A5)
inactive: [8] -0.126 | [2] -0.196 | Nexturastat A 0.252 | vemurafenib 0.1 | [4] 0.036 | epoxomicin -0.362 | [9] -0.108 | [10] 0.01 | [11] 0.308

GOLGA8R (UniProt I6L899)
inactive: [12] -0.037 | [1] 0.041 | [2] -0.205 | vemurafenib 0.06 | [3] -0.086 | givinostat 0.223 | barasertib 0.048 | [13] -0.036 | volasertib -0.4 | [9] -0.182 | [10] 0.191 | [7] -0.003 | [11] -0.033

GPT2 (UniProt Q8TD30)
inactive: [12] -0.057 | [1] 0.07 | vemurafenib 0.137 | [3] -0.038 | [4] 0.327 | volasertib -0.009 | [9] -0.169 | [10] 0.124 | [7] -0.278 | [11] -0.06

GPSM3 (UniProt Q9Y4H4)
inactive: [8] -0.206 | [1] 0.107 | vemurafenib 0.095 | [3] -0.01 | [4] -0.178 | [13] 0.073 | volasertib -0.22 | [5] -0.021 | [10] 0 | [7] -0.333

GREB1 (UniProt Q4ZG55)
inactive: [8] -0.003 | [2] -0.338 | vemurafenib 0.047 | givinostat 0.294 | epoxomicin -0.081 | [10] -0.095
active: Nexturastat A 0.755

GPAA1 (UniProt E9PLG8)
inactive: [2] 0.207 | [4] -0.104 | barasertib -0.142 | [13] -0.056 | [5] -0.025 | [9] 0.075 | rosiglitazone 0.231 | [7] -0.101 | [11] 0.004

GON4L (UniProt Q3T8J9)
inactive: [8] -0.009 | [1] -0.104 | [2] 0.036 | Nexturastat A 0.002 | [3] 0.002 | [4] -0.381 | barasertib -0.083 | [13] -0.134 | volasertib 0.002 | [5] 0.029 | epoxomicin 0.091 | rosiglitazone -0.018 | [7] 0.05

GPATCH4 isoform 3 (UniProt Q5T3I0)
inactive: [12] -0.245 | [1] -0.038 | [2] -0.214 | Nexturastat A 0.392 | vemurafenib -0.213 | [3] 0.013 | barasertib -0.136 | [13] 0.297 | volasertib 0.226 | epoxomicin -0.02 | [9] 0.259 | [10] 0.358 | rosiglitazone -0.166 | [7] 0.183 | [11] 0.298

GPR68 (UniProt Q15743)
inactive: [12] -0.041 | [2] -0.063

GOLGA6B (UniProt A6NDN3)
active: vemurafenib 0.882 | [5] -0.579
inactive: [8] -0.035 | [2] 0.033 | Nexturastat A -0.099 | [4] -0.113 | givinostat 0.002 | barasertib 0.011 | epoxomicin -0.061 | [9] -0.185 | [10] 0.327 | [11] 0.067

GRAMD1A (UniProt Q96CP6)
inactive: Nexturastat A 0.115 | barasertib 0.037 | epoxomicin -0.139 | rosiglitazone 0.231

GPC4 (UniProt O75487)
inactive: [9] -0.288 | [11] -0.144

GRK6 isoform 2 (UniProt P43250)
inactive: vemurafenib -0.043 | [10] -0.021 | [7] 0.143

GNL3L (UniProt Q9NVN8)
inactive: [9] 0.001 | [11] -0.04

GSDME (UniProt O60443)
inactive: Nexturastat A 0.054 | givinostat -0.147 | [13] -0.137 | epoxomicin -0.174 | [6] -0.079 | [7] -0.341

GLT8D1 (UniProt Q68CQ7)
inactive: [13] -0.201 | [5] 0.001 | [9] 0.106 | [7] -0.119 | [11] 0.106

GJA1 (UniProt P17302)
inactive: barasertib 0.078 | [9] -0.096 | rosiglitazone 0.063 | [11] 0.763

GPATCH1 (UniProt Q9BRR8)
inactive: [8] -0.171 | [1] -0.045 | Nexturastat A -0.013 | vemurafenib -0.059 | [3] -0.06 | givinostat -0.187 | [13] -0.003 | volasertib -0.043 | epoxomicin 0.067 | [6] -0.461 | [10] 0.02 | [7] -0.055

Reprinted at random: 2 records from the list
GSDME (UniProt O60443)
inactive: Nexturastat A 0.054 | givinostat -0.147 | [13] -0.137 | epoxomicin -0.174 | [6] -0.079 | [7] -0.341

GNL3L (UniProt Q9NVN8)
inactive: [9] 0.001 | [11] -0.04

The results go on.

GSE1 (UniProt Q14687)
inactive: [12] 0.071 | vemurafenib -0.13 | barasertib 0.232 | [5] -0.003 | [10] -0.117 | [7] -0.004

GK5 (UniProt Q6ZS86)
inactive: [12] 0.068 | [1] -0.078 | [2] 0.004 | Nexturastat A -0.002 | vemurafenib 0.055 | [3] 0.108 | barasertib -0.074 | volasertib -0.138 | epoxomicin 0.032 | [9] -0.169 | [10] -0.164 | rosiglitazone 0.054 | [7] 0.025 | [11] -0.149

GORASP1 (UniProt Q9BQQ3)
inactive: [1] 0.08 | Nexturastat A 0.224 | [3] 0.059 | [13] 0.133 | volasertib -0.287 | epoxomicin 0.008 | [7] 0.224

GINM1 (UniProt Q9NU53)
inactive: [8] -0.059 | [1] -0.002 | Nexturastat A 0.103 | [3] 0.029 | [4] -0.079 | givinostat 0.168 | barasertib -0.085 | [13] -0.133 | volasertib 0.111 | [5] -0.043 | epoxomicin -0.017 | [6] -0.148 | [9] 0.158 | rosiglitazone -0.04 | [11] -0.082

GOLIM4 (UniProt F8W785)
inactive: [8] 0.036 | [2] 0.013 | Nexturastat A -0.092 | vemurafenib -0.062 | barasertib 0.07 | [13] -0.208 | [5] 0.028 | epoxomicin 0.027 | [9] 0.008 | [10] 0.002 | rosiglitazone 0.017 | [7] -0.023 | [11] 0.034

GNL2 (UniProt Q13823)
inactive: [12] 0.103 | Nexturastat A 0.388 | [4] 0.118 | barasertib 0.177 | [13] 0.263 | epoxomicin -0.234 | [9] -0.128 | rosiglitazone -0.191 | [11] 0.191

GNG12 (UniProt Q9UBI6)
inactive: [9] -0.127 | [11] 0.226

GOLGA7 (UniProt Q7Z5G4)
inactive: [8] -0.013 | [1] 0.024 | [2] 0.035 | Nexturastat A -0.046 | vemurafenib 0.063 | [3] -0.077 | [4] -0.074 | givinostat -0.065 | barasertib -0.015 | [13] 0.022 | volasertib 0.136 | [5] -0.055 | epoxomicin 0.047 | [6] 0.015 | [9] -0.06 | [10] -0.01 | rosiglitazone 0.022 | [7] 0.029 | [11] 0.167
